Binding data for 3 substances are collected here from article PMC6720459.

Chains of the proteins cited; added tags and fusions are not shown. Lines headed by an entry give the natural chain unless they say otherwise; changes in a name come on top.
UniProt P50516: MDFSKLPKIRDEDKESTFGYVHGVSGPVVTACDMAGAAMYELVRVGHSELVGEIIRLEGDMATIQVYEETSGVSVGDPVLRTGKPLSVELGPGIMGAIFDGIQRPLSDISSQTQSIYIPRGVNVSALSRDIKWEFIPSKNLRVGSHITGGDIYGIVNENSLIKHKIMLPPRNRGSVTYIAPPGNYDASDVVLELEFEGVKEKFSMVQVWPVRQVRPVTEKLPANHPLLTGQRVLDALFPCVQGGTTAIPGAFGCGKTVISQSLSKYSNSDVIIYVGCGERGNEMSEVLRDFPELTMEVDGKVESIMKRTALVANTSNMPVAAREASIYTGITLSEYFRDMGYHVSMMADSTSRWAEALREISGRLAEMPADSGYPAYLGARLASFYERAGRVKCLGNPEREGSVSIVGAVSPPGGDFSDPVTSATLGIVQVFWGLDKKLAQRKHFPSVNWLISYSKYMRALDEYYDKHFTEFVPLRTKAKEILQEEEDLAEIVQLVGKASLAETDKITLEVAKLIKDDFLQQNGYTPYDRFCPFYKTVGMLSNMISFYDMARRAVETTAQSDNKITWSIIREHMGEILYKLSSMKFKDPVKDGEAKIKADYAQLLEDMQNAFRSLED
UniProt Q9EPK8: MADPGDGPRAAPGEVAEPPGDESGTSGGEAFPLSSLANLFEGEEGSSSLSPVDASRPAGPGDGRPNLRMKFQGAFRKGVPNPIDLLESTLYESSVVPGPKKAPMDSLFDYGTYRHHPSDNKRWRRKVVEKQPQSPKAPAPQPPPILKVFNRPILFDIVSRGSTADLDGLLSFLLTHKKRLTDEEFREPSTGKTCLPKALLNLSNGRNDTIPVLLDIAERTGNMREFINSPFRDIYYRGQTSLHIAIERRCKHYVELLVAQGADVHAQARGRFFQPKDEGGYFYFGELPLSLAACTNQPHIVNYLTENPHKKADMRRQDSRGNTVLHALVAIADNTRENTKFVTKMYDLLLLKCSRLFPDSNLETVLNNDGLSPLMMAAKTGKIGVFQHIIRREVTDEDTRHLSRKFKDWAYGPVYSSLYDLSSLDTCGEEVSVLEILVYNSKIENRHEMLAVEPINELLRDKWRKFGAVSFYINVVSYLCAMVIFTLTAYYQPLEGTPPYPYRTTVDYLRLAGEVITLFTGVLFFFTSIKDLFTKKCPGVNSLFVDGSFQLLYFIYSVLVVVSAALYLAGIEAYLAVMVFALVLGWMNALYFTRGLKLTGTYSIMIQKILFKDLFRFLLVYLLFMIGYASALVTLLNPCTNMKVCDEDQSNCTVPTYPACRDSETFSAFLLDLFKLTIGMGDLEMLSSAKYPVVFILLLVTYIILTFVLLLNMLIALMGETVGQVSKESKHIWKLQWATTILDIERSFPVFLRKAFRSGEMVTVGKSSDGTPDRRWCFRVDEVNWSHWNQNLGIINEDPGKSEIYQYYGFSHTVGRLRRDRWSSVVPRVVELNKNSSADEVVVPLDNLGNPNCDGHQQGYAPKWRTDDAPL

No constants are given. Whether binding was seen depends on the method and setting. In cells and extracts the contact can be indirect. These calls come from enrichment with a bait or labelling near it, and not all partners need be listed.

This assay has as its target T1, ALDOA (bait of the co-immunoprecipitation analysed by mass spectrometry) (UniProt P05064).
T1 sequence: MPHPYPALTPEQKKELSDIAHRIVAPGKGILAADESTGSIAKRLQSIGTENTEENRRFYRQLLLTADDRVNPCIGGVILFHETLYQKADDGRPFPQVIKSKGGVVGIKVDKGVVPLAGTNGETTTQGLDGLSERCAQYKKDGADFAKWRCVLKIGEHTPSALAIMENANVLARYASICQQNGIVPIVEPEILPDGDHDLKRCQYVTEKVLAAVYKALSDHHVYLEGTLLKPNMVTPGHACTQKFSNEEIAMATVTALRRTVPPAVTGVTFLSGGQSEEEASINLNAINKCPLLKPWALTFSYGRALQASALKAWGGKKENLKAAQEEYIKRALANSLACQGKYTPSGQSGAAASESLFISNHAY
Kind of assay: affinity purification with mass spectrometry; protein complexes co-immunoprecipitated with ALDOA from light organelle fractions containing lysosomes.

Regarding “v-ATPase subunit V1A (from UniProt P50516 1-617)”, the binding result is on record as “binds”.

In the case of “TRPV4 (hit of the ALDOA mass spectrometry) (from UniProt Q9EPK8 1-871)”, the binding entry was “binds”.

Consider PFK1 (enzyme), for which the binding entry was “binds”.
